# Experimental data published in patent US4335213A (priority 1979, dated 1982).
# Where two headings read alike, the source gives them in different places. At least one structure is not confirmed: it was looked up by name or label, or the drawing left a doubt.
# System: galactose oxidase
# Format: biochemical, Gibberella fujikuroi Y-530929
# Details: 25° C., pH 7.0
smiles,measurement,setting,value
"CCN(CC)C(=S)S [DDC, diethyldithiocarbamate]",Inhibition rate,inhibitor 10^-3 M,100%
same,Inhibition rate,inhibitor 10^-4 M,84.8%
same,Inhibition rate,inhibitor 10^-5 M,69.3%
